Assay results published in publication PMC10115824.
No constants are given. Whether binding was seen depends on the method and setting. In cells and extracts the contact can be indirect. These calls come from enrichment with a bait or labelling near it, and not all partners need be listed.

Sequences of proteins named here, by UniProt entry; tags and fusion partners are left off. Residues count along the entry.
UniProt P13596, residues 20-858: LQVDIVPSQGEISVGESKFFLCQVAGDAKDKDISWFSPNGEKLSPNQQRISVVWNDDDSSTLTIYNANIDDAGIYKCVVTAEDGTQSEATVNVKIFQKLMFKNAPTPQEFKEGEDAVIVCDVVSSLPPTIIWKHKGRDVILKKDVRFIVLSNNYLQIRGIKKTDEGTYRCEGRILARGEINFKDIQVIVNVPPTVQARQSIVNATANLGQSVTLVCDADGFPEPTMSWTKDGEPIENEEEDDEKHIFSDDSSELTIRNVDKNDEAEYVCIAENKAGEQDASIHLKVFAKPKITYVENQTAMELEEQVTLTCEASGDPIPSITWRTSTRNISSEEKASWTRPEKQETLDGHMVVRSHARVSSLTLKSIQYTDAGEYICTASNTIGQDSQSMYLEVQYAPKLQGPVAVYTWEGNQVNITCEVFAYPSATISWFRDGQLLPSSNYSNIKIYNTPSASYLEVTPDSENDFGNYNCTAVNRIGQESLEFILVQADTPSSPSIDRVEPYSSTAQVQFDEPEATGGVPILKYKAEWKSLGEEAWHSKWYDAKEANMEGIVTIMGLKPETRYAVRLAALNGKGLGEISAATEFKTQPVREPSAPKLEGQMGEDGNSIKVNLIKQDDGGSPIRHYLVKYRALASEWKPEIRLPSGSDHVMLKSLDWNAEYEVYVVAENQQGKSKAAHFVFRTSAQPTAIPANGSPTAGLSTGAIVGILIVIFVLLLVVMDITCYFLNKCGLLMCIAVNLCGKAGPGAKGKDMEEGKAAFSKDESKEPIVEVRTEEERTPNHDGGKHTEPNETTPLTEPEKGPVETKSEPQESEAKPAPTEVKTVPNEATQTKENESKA

Target: T1, Tissue kallikrein-related peptidase 8 (KLK8) in rat hippocampus (not stated (rat hippocampus; species of the transgene not told)) (UniProt O88780)
T1 sequence: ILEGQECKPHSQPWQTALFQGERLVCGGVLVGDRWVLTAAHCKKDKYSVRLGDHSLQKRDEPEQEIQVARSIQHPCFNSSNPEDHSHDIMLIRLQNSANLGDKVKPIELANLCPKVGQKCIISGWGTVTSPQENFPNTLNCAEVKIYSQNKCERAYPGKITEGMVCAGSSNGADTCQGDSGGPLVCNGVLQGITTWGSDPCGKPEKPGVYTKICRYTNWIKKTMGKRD
Test: affinity purification with mass spectrometry; proteins from hippocampal tissue of KLK8 transgenic rats immunoprecipitated with antibodies against KLK8; SDS-PAGE, trypsin digestion, UPLC-MS/MS

Neural cell adhesion molecule 1 (NCAM1) in rat hippocampus (from UniProt P13596 20-858)
binding: binds
